# Data published in PubChem BioAssay AID1487 (National Center for Advancing Translational Sciences (NCATS), 2009).
# This is one part of the list. Shown are side measurements of this screen, not its main read-out; they come without a call. Most of these compounds were active or inconclusive in the main read-out, so they are no random draw. Words in brackets tell the shape of the fitted curve; partial curves, single points and poor fits give uncertain potencies.
# Assay: qHTS Assay for Modulators of Lamin A Splicing
# Settings: HeLa LMNA splicing GFP/RFP minigene ratio, 48 h
# How it was run: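 Read-out is the ratio of GFP to DsRed2 object intensity, acquired by 488 nm laser-scanning cytometry on HeLa lamin A-EGFP minigene reporter cells. Compound incubation 48 hrs at 37 °C in Opti-MEM with 2% FBS; DMSO 0.5% final.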
# [1] = measured here: RFP viability control channel
# [2] = measured here: GFP splicing reporter channel
Structure (SMILES),AC50 [1],AC50 [2]
CNC(=O)c1cnc2sc(N3CCCCCC3)nn2c1=O,"0.02 µM [falling, full curve, poor fit]",–
CC(C)c1ccccc1NC(=S)N1CCN(Cc2ccc3c(c2)OCO3)CC1,"17.8 µM [rising, partial curve, poor fit]",–
On1onc2c3cc(-c4ccccc4)nc3ccc21,"5.01 µM [falling, full curve]","7.08 µM [falling, partial curve]"
Cn1c(/C=C/c2cccc([N+](=O)[O-])c2)nc2ccccc2c1=O,–,"0.01 µM [falling, full curve, poor fit]"
O=C(CCN1CCC(c2ccccc2)C1)c1ccccc1 (stereo unspecified),"17.8 µM [falling, single point]","35.5 µM [falling, single point]"
COc1ccccc1C(CCNS(=O)(=O)c1ccc(C)cc1)c1ccco1 (stereo unspecified),"11.2 µM [rising, partial curve, poor fit]",–
Cc1ccc2cc(CN(C(=O)c3ccco3)c3ccccc3C)c(=O)[nH]c2c1,"20 µM [rising, single point]",–
CCc1ccccc1NC1Nc2cc(C)nn2S1 (stereo unspecified),"0.501 µM [falling, full curve]",–
Cc1nn(Cc2ccc(Cl)cc2)c(C)c1NC(=O)c1cc(-c2ccc3c(c2)OCO3)on1,"10 µM [rising, partial curve]","10 µM [rising, partial curve, poor fit]"
CCOc1ccccc1N(C)C(=O)c1c2c(nc3ccccc13)C(=O)N(C1CCCCC1)C2,"31.6 µM [falling, partial curve, poor fit]",–
CCOC(=O)c1cc2sccc2n1CC(=O)N1CCc2ccccc21,"5.62 µM [rising, partial curve, poor fit]",–
COc1ccccc1NC(=O)CN(c1ccc(C)cc1)S(=O)(=O)c1c(C)n[nH]c1C,"0.398 µM [rising, full curve, poor fit]",–
CSc1ccccc1C(=O)NCc1ccc(F)cc1,"0.00501 µM [falling, full curve, poor fit]",–
c1ccc2c(Nc3nc(N4CCOCC4)c4ccccc4n3)cccc2c1,"22.4 µM [rising, partial curve]","11.2 µM [rising, partial curve, poor fit]"
COc1cc(/C=N/NC(=O)c2ccc(-c3ccccc3)cc2)cc(OC)c1OC,"15.8 µM [rising, single point]",–
CCn1cc([N+](=O)[O-])c(C(=O)N2N=C(c3ccc4ccccc4c3)CC2c2ccccc2O)n1 (stereo unspecified),"15.8 µM [rising, partial curve]","10 µM [rising, partial curve]"

# Among those listed so far, 3 have an aryl methoxy group:
Structure (SMILES),AC50 [1],AC50 [2]
COc1ccccc1C(CCNS(=O)(=O)c1ccc(C)cc1)c1ccco1 (stereo unspecified),"11.2 µM [rising, partial curve, poor fit]",–
COc1ccccc1NC(=O)CN(c1ccc(C)cc1)S(=O)(=O)c1c(C)n[nH]c1C,"0.398 µM [rising, full curve, poor fit]",–
COc1cc(/C=N/NC(=O)c2ccc(-c3ccccc3)cc2)cc(OC)c1OC,"15.8 µM [rising, single point]",–
